Experimental data published in PMC5453112.

Sequences of proteins named here, by UniProt entry; tags and fusion partners are left off. A change or cut given only in a name is not applied to a line headed by its entry.
UniProt Q4QD01: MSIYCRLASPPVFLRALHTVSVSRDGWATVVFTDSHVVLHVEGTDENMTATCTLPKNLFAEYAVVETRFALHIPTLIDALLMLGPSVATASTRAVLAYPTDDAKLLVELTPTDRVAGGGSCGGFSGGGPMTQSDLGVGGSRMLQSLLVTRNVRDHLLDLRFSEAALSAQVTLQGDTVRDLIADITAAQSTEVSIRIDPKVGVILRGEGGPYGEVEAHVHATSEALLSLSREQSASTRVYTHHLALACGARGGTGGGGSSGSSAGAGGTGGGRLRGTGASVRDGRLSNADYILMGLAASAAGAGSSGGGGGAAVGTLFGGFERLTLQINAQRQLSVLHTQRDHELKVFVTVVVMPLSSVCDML
UniProt Q4QBE5: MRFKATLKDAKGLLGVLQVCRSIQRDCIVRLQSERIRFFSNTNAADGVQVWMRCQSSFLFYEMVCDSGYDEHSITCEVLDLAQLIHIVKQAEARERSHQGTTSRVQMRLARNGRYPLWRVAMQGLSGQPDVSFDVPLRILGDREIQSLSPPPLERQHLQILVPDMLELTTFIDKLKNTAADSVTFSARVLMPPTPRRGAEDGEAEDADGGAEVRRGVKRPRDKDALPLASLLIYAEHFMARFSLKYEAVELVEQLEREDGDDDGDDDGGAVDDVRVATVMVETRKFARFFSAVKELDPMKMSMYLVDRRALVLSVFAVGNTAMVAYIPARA

Assays:
[1] = biological target: LmRad1 (L. major (endogenous in L. major LT252)) (UniProt Q4QD01); assay: co-IP; extract of LmHus1-12xMyc-expressing L. major cells, IP with mouse anti-LmRad1 serum (pre-immune serum as control) on Dynabeads; Buffer A (50 mM Tris pH 9.0, 400 mM KCl, 1% NP40), ~4 h at 4°C; western blot with anti-LmRad9, anti-Myc and anti-LmRad1
[2] = biological target: C-terminally 12xMyc tagged LmHus1 (LmHus1-12xMyc) (L. major) (UniProt Q4QBE5); assay: co-IP; extract of LmHus1-12xMyc-expressing L. major cells (WT cells as control), IP with mouse anti-Myc monoclonal antibody on Dynabeads; Buffer A (50 mM Tris pH 9.0, 400 mM KCl, 1% NP40), ~4 h at 4°C; western blot with anti-LmRad9, anti-LmRad1 and anti-Myc

Row | binding [1] | binding [2] | Substance
1 | binds |  | C-terminally 12xMyc tagged LmHus1 (LmHus1-12xMyc) (from UniProt Q4QBE5)
2 |  | binds | LmRad1 (from UniProt Q4QD01)

No constants are given. Whether binding was seen depends on the method and setting. Binding seen in cells or lysates may run through a third protein. Binding can be weak; no strength is given.
